# Results of single-concentration screens

The filed quantity is “Percent Effect” (%). How 0% and 100% were set is not recorded. Most values in the screen are low, and negative values occur. Compounds were drawn at random from those tested, without regard to their results.

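Whole-parasite assay of Trypanosoma brucei over 72 hours; the read-out is not stated. Tested at 30 µM. Higher reads as stronger inhibition (inferred: compounds with an IC50 in retests scored well above the rest). Values scatter widely below zero; nearly all retest evidence comes from the higher of the two concentrations used. Of about 64,000 compounds tested this way, about 940 (1.5%) reached 50% or more in at least one test.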

| # | SMILES | effect |
|---|---|---|
| 1 | `CN(Cc1cc[nH]n1)C(=O)c1cccc(CCC(C)(C)O)c1` | -4.528 |
| 2 | `Cc1c(O)cccc1C(=O)N1CCCC2(C1)C(=O)N(C)c1ccccc12` (stereo not drawn) | -12.46 |
| 3 | `O=c1cc(CN(CCO)C2CC2)nc2ccc(Cl)cn12` | -21.83 |
| 4 | `O=C(O)C(F)(F)F.O=C(O)C(F)(F)F.[H][C@@]12CCCO[C@]1([H])[C@H](OCCCn1cccn1)CN2c1nnc(C)s1` | 15.47 |
| 5 | `CN(C)[C@H]1CCCCN(Cc2ccccc2Cn2cccn2)C1` | -100.2 |
| 6 | `O=C(CCc1ccc(Br)cc1)NCc1nnc[nH]1` | -18.14 |
| 7 | `CCCN1CC2(CCN(C)CC2)CC1C(=O)NCCn1cccn1` (stereo not drawn) | 7.877 |
| 8 | `O=C(c1cnc(O)cc1O)N1CCCC(CCc2ccccc2F)C1` (stereo not drawn) | -24.07 |
| 9 | `CC(=O)N1CCC2(CCCN(Cc3ccc(Cl)c(C(F)(F)F)c3)C2)C1` (stereo not drawn) | 21.18 |
| 10 | `COCC(=O)N1CCCCC1c1nc(CN(C)C(C)=O)cc(N(C)C)n1` (stereo not drawn) | -12.37 |
| 11 | `Clc1ccc(CNc2ccc(Cl)cn2)cc1` | -31.82 |
| 12 | `CCN(CC(=O)N(C)C)C(=O)c1cc(-c2cccc(Cl)c2)no1` | -13.93 |
| 13 | `Br.O=C(CN(C1=NCCCCC1)c1ccc(Cl)cc1)c1ccccc1` | -1.055 |
| 14 | `Cc1nc(C(=O)N2CCOC(c3nc(C(C)C)n[nH]3)C2)c[nH]1` (stereo not drawn) | 18.09 |
| 15 | `O=C(O)C(F)(F)F.[H][C@@]12CCN(Cc3ccccc3)[C@@]1([H])CC(=O)N2CCOC` | -233.1 |
| 16 | `CCCc1nc(C)cc(N2CCNC(C(=O)NC3CC3)C2)n1` (stereo not drawn) | -16.92 |
| 17 | `COC(=O)c1ccc(NC(=O)CN2CCCCC2C2OCCO2)cc1` (stereo not drawn) | -31.13 |
| 18 | `CSCc1noc(CNC(=O)C2CCN(C(=O)C3CC3)CC2)n1` | -0.4298 |
| 19 | `Clc1cc(N2CCC(N3CCCC3)CC2)nc2[nH]ccc12` | -32.69 |
| 20 | `O=C(NCCNc1ccccn1)NC1CCCC1` | -25.1 |
| 21 | `CC(C)n1ncc2cc(NC(=O)N3CCC(CO)CC3)cnc21` | -7.894 |
| 22 | `[H][C@@]12OCCN(Cc3cnn(C)c3)[C@@]1([H])CCC2Cn1cccn1` (stereo partly drawn) | -40.14 |
| 23 | `CN(C)c1ccc(NC(=O)NCc2ccc(Cl)s2)cn1` | 23.36 |
| 24 | `CC(C)n1[nH]c(=O)c2c1NC(=O)CC2c1cccc(O)c1` (stereo not drawn) | -14.82 |
| 25 | `O=C(NCCCC(=O)N1Cc2ccccc2C1)NCc1cccnc1` | 3.302 |
| 26 | `NC(=O)CN1CCCN(C(=O)c2ccn(-c3cccc(F)c3)n2)CC1` | 26.82 |
| 27 | `Cn1c(CN2CCCC(N3CCNC3=O)C2)cc(=O)n(C)c1=O` (stereo not drawn) | -37.42 |
| 28 | `CC(C)c1nccn1C1CCCN(C(=O)c2cccc3c2OCO3)C1` (stereo not drawn) | 2.812 |
| 29 | `Cc1cc(C(F)(F)F)nc(C2COCCN2S(C)(=O)=O)n1` (stereo not drawn) | -3.913 |
| 30 | `O=S(=O)(NCCCn1cccn1)c1ccc2c(c1)CCC2` | -47.7 |
| 31 | `CS(=O)(=O)c1cccc(C(N)c2ccc(F)cc2)c1` (stereo not drawn) | 3.612 |
| 32 | `CCCc1cc(=O)[nH]c(-c2cccc(CN3CCCCCC3)c2)n1` | -35.45 |
| 33 | `N#Cc1nccnc1N1CCC(CSc2ccccc2)C1` (stereo not drawn) | -7.58 |
| 34 | `COCCN(C)CC(=O)N1CCCC2(CCC(=O)N(CC3CC3)C2)C1` (stereo not drawn) | 8.859 |
| 35 | `Cc1cc(C(=O)NCC(c2ccsc2)N(C)C)no1` (stereo not drawn) | -2.001 |
| 36 | `O=S1(=O)COCCN1Cc1ccc(F)c(C(F)(F)F)c1` | -0.08491 |
| 37 | `COC(=O)CCCNC(=O)N1CCc2c(F)ccc(F)c2C1` | 8.242 |
| 38 | `CC(C)(C)C1SCC(=O)Nc2c1c(O)nn2C1CCCC1` (stereo not drawn) | -9.859 |
| 39 | `Cl.O=C(NC[C@@]1(COc2cnccn2)C[C@@H](O)[C@@H](O)C1)C1CCOCC1` | -9.946 |
| 40 | `CC/N=c1\nc(NCC)nc2n1C(O)(Nc1cc(Cl)ccc1Cl)CS2` (stereo not drawn) | -52.76 |
| 41 | `Cc1cn2nc(N3CCN(Cc4cc(C)on4)CC3)sc2n1` | -13.35 |
| 42 | `COc1ccc(C(=O)NCCN(C)C)c(I)c1` | 9.113 |
| 43 | `CN(Cc1ccco1)C1CCC12CCN(C(=O)N1CCCC1)CC2.O=C(O)C(F)(F)F` (stereo not drawn) | -23.19 |
| 44 | `COc1ccc(N2CCN(C(=O)CCn3nccc3C)CC2(C)C)cc1` | -40.49 |
| 45 | `CCn1nc(C)c(NC(=O)CN2CC[C@@H](F)C2)c1C` | -16.35 |
| 46 | `CCc1ccc(C2CCCCCN2Cc2nc(CCOC)no2)o1` (stereo not drawn) | -20.82 |
| 47 | `COCCCNC(=O)NCc1ccc(N2CCOC(C)C2)nc1` (stereo not drawn) | -33.97 |
| 48 | `Cc1cc(C2CCN(S(=O)(=O)c3cn(C)cn3)CC2)ccn1` | 4.488 |
| 49 | `O=C(NCCCO)Nc1ccccc1` | -25.63 |
| 50 | `CC(NC(=O)CCC(=O)c1cccs1)c1nnc2n1CCC2` (stereo not drawn) | -13.63 |
| 51 | `O=C(c1ccnnc1)N1CCC2(CC1)CN(c1ccccn1)CCO2` | 18.5 |
| 52 | `COc1c(F)cccc1C(=O)N(C)Cc1nc(-c2ccccn2)no1` | -113.4 |
| 53 | `Cc1ccc2c(c1)C(NCc1nnc3n1CCCCC3)CCCO2` (stereo not drawn) | -18.67 |
| 54 | `Cn1cccc1CN1CCC2(CC1)CN(c1ccccc1)C(=O)CO2.O=C(O)C(F)(F)F` | -21.68 |
| 55 | `COc1cc(N2CCC3(CCCN(Cc4ccccn4)C3)C2)ncn1.O=C(O)C(F)(F)F` (stereo not drawn) | -81.3 |
| 56 | `COc1cccc(SCC(=O)N2CCCC(N3CCCC3=O)C2)c1` (stereo not drawn) | 16.43 |
| 57 | `Cc1nn(C)c(N(C)C)c1CNCc1nnc2n1CCCCC2.Cl` | -2.98 |
| 58 | `O=C(O)C(F)(F)F.[H][C@@]12CCN(Cc3cccc(C)n3)[C@@]1([H])CCN2C(=O)c1cc(C)oc1C` | -15.02 |
| 59 | `CCCc1cc(C(=O)N2CCCC2c2cccnc2)[nH]n1` (stereo not drawn) | 5.714 |
| 60 | `CS(=O)(=O)c1ccc(OCCNCc2cccc(Cl)c2)cc1` | -23.94 |
| 61 | `[H][C@]12CC[C@]([H])(CN(C3Cc4ccccc4C3)C1)N(Cc1cc(CC)no1)C2` | 10.13 |
| 62 | `CCC(=O)Nc1ccc(F)cc1OC` | -4 |
| 63 | `Cc1ccc(CN2CCC(F)(F)C3(CCN(c4cnccn4)C3)C2)o1.O=C(O)C(F)(F)F.O=C(O)C(F)(F)F` (stereo not drawn) | 2.327 |
| 64 | `Cc1cc2[nH]c(O)nc2cc1NCc1ccccc1` | -14.22 |
| 65 | `O=c1cc(N2CCNCC2)cnn1Cc1noc(C2CCCC2)n1` | -53.93 |
| 66 | `CN(C)c1ncccc1CNC(=O)c1csc(Br)c1` | -4.743 |

Repeated from the top, 8 entries:

| SMILES | effect |
|---|---|
| `CN(Cc1cc[nH]n1)C(=O)c1cccc(CCC(C)(C)O)c1` | -4.528 |
| `Cc1c(O)cccc1C(=O)N1CCCC2(C1)C(=O)N(C)c1ccccc12` (stereo not drawn) | -12.46 |
| `O=c1cc(CN(CCO)C2CC2)nc2ccc(Cl)cn12` | -21.83 |
| `O=C(O)C(F)(F)F.O=C(O)C(F)(F)F.[H][C@@]12CCCO[C@]1([H])[C@H](OCCCn1cccn1)CN2c1nnc(C)s1` | 15.47 |
| `CN(C)[C@H]1CCCCN(Cc2ccccc2Cn2cccn2)C1` | -100.2 |
| `O=C(CCc1ccc(Br)cc1)NCc1nnc[nH]1` | -18.14 |
| `CCCN1CC2(CCN(C)CC2)CC1C(=O)NCCn1cccn1` (stereo not drawn) | 7.877 |
| `O=C(c1cnc(O)cc1O)N1CCCC(CCc2ccccc2F)C1` (stereo not drawn) | -24.07 |

From ChEMBL document CHEMBL3988442, “University of Dundee, Small-Polar-MMV Screening Library” (2021).